Screening data, single-dose tests

Chains of the proteins cited; added tags and fusions are not shown. Residues count along the entry.
UniProt P9WNZ1, whole entry: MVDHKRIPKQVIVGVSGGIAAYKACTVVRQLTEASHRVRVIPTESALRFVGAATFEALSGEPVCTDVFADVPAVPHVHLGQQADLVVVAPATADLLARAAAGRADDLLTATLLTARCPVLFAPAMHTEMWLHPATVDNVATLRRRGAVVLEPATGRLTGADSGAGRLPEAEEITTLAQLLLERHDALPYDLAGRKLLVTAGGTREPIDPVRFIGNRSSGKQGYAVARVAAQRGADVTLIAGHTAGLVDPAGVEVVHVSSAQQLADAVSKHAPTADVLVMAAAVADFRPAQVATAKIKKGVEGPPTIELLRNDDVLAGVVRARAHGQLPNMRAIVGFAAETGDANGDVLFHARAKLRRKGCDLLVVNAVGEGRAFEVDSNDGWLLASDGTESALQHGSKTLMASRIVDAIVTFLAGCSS
UniProt P9WFT3, whole entry: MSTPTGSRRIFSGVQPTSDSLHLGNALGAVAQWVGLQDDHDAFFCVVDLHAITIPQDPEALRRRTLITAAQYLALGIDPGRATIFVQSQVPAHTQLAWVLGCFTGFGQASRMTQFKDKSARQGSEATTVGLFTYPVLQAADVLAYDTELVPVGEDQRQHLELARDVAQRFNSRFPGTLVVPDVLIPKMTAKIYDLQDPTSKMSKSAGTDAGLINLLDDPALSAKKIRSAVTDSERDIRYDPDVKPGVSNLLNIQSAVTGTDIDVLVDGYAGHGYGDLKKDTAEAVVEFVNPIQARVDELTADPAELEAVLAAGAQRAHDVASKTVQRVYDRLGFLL
UniProt P9WPC5, whole entry: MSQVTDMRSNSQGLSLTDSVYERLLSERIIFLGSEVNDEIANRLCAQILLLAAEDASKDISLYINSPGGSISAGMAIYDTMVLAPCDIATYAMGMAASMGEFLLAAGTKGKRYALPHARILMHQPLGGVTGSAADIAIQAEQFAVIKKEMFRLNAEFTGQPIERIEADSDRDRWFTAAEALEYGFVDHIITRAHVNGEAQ
UniProt P9WPC3, whole entry partner: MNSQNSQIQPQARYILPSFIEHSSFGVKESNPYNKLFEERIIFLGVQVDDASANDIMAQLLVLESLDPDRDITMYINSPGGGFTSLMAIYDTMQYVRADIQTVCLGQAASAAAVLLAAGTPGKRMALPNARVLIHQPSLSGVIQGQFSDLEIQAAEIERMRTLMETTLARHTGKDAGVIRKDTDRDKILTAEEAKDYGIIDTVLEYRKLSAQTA
UniProt A4I591, 1-473: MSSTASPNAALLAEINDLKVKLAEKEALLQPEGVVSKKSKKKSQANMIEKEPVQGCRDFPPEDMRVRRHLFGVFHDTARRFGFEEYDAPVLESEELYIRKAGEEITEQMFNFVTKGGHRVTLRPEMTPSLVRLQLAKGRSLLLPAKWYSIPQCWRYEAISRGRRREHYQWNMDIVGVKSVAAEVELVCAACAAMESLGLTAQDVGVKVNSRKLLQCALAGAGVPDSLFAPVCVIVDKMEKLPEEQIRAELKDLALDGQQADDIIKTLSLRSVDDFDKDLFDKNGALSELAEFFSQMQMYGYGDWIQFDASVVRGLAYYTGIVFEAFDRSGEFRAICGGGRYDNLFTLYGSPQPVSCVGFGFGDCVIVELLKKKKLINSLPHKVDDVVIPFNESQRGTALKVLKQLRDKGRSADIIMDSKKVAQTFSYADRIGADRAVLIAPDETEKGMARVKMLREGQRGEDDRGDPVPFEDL
UniProt Q4DA54, 1-478: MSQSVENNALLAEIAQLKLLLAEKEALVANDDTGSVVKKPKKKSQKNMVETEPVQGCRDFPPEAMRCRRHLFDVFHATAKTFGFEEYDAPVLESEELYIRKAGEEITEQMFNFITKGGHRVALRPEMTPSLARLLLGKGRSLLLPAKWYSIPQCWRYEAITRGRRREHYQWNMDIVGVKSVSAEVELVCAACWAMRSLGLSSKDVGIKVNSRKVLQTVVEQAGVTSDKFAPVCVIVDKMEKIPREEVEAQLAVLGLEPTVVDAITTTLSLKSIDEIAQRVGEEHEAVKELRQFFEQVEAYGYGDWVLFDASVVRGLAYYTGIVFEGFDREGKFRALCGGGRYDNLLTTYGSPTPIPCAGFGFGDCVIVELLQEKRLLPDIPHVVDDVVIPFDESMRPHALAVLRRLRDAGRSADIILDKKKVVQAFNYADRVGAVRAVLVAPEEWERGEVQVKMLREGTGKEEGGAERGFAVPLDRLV

CoaBC: 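Coenzyme A biosynthesis protein CoaBC, Mycobacterium tuberculosis (UniProt P9WNZ1). Enzyme assay of CoaBC with a phosphate dye (Biomol Green) read at 650 nm. Compounds at 30 µM. Higher reads as stronger inhibition, judged from the few compounds that gave an IC50. Most strong results did not repeat in a second test. Size under these conditions: about 67,000 compounds, about 40 of them at 50% or above in at least one test.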
MtTrpRS: 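Enzyme assay of tryptophanyl-tRNA synthetase; the read-out is not stated. Target: Tryptophan-tRNA ligase, Mycobacterium tuberculosis (UniProt P9WFT3). Compounds at 10 µM. Higher most likely means stronger inhibition; the record gives no direction and few retests gave an IC50. Of about 65,000 compounds tested this way, about 64 (0.098%) reached 50% or more in at least one test.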
ClpP1P2: 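Protease assay of ClpP1P2, read by the AMC dye that it sets free. Target: ClpP1P2, Mycobacterium tuberculosis (UniProt P9WPC5 and UniProt P9WPC3). Concentration: 50 µM. Direction is inferred from only a few compounds that gave an IC50; most scored high, so higher reads as stronger inhibition. Most other retested compounds had strongly negative values. Of about 69,000 compounds tested this way, about 10 (0.015%) reached 50% or more in at least one test.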
LiHisRS: 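Histidine-tRNA ligase, Leishmania infantum (UniProt A4I591). Enzyme assay of histidyl-tRNA synthetase; the read-out is not stated. Compounds at 30 µM. Direction is inferred from retests: higher values go with stronger inhibition. The assay is labelled LdHisRS but filed under L. infantum. Of about 69,000 compounds tested this way, about 410 (0.6%) reached 50% or more in at least one test.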
TcHisRS: 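Enzyme assay of histidyl-tRNA synthetase; the read-out is not stated. Target: Histidine-tRNA ligase, Trypanosoma cruzi CL Brener (UniProt Q4DA54). Tested at 30 µM. Direction is inferred from retests: higher values go with stronger inhibition. Size under these conditions: about 69,000 compounds, about 31 of them at 50% or above in at least one test.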

Results are given as percent effect.
How 0% and 100% were set is not recorded. Most values in the screen are low, and negative values occur.
The compounds are a random part of those screened.

Result for Cc1nnc([C@@H]2C[C@H]3CN(C(=O)c4c(C)noc4C)C[C@H]3O2)[nH]1 was MtTrpRS: -2.913%; ClpP1P2: -3.375%; LiHisRS: 17.24%; TcHisRS: 2.532%. CCOC(=O)CCC(=O)NC(C)c1ccc(NC(=O)CC)cc1 (centres undefined) read CoaBC: 8.772%; MtTrpRS: -6.038%; ClpP1P2: 3.564%; LiHisRS: 14.29%; TcHisRS: 5.435%. For CO[C@H]1CN(C)S(=O)(=O)[C@@]12CCN(Cc1ccccc1)C2 the result was CoaBC: -0.2421%; ClpP1P2: 0.6529%; LiHisRS: 4.082%; TcHisRS: 3.371%. Result for CNS(=O)(=O)c1cc(C(=O)N2CCCCCC2CC(C)C)co1 (centres undefined) was CoaBC: 8.065%; MtTrpRS: -3.748%; ClpP1P2: -8.704%; LiHisRS: 14.47%; TcHisRS: -0.4926%. COc1cccc(CCC(=O)N2CCCCC2Cn2cccn2)c1 (centres undefined) gave CoaBC: 0.7692%; MtTrpRS: -0.7037%; ClpP1P2: 1.568%; LiHisRS: 5.333%; TcHisRS: -0.3774%.

Cc1nc(-c2ccccc2)cc(C2CCNCC2)n1 gave CoaBC: -3.804%; MtTrpRS: 2.46%; ClpP1P2: 0.01488%; LiHisRS: 8.511%; TcHisRS: 2.326%. COCCN(Cc1ccoc1)C(=O)c1c(F)cccc1F gave CoaBC: 1.449%; MtTrpRS: 0%; ClpP1P2: -10.01%; LiHisRS: -100%; TcHisRS: 7%. With COCC1COCCC12CCN(S(=O)(=O)c1ccccc1)CC2 (centres undefined) the screen gave CoaBC: 2.788%; ClpP1P2: -7.554%; LiHisRS: 13.46%; TcHisRS: 9.497%. Result for CN1N=C(C(=O)NCc2ccc3c(c2)CCCN3C)CCC1=O was CoaBC: 2.872%; MtTrpRS: -5.75%; ClpP1P2: 7.702%; LiHisRS: 24.32%; TcHisRS: 2.632%. Cc1ccc2ncn(C(C)Cn3cccn3)c(=O)c2c1 (centres undefined) gave CoaBC: 4.978%; MtTrpRS: -3.382%; ClpP1P2: -10.99%; LiHisRS: 8.197%; TcHisRS: 7.2%.

CNC(=O)C1(CCCc2ccncc2)CCCCN1 (centres undefined) gave CoaBC: 1.225%; ClpP1P2: 10.87%; LiHisRS: 17.71%; TcHisRS: 5.319%. Cc1c[nH]c(C2CCCN2C(=O)CCc2c(C)n[nH]c2C)n1 (centres undefined) read CoaBC: -2.871%; MtTrpRS: -9.115%; ClpP1P2: 1.035%; LiHisRS: 12.95%; TcHisRS: 6.513%. CCS(=O)(=O)N1CCC(NC(=O)c2cc3ccccc3cc2O)CC1 read CoaBC: 0.2632%; MtTrpRS: 0.2674%; ClpP1P2: -9.209%; LiHisRS: 21.3%; TcHisRS: -10.85%. COCCN(Cc1cnn(C)c1)c1nc2c(s1)c(C)nn2C read CoaBC: -2.19%; MtTrpRS: -2.687%; ClpP1P2: 2.985%; LiHisRS: 15.56%; TcHisRS: 4.242%.

Once more, the final 2:

compound	CoaBC	MtTrpRS	ClpP1P2	LiHisRS	TcHisRS
CCS(=O)(=O)N1CCC(NC(=O)c2cc3ccccc3cc2O)CC1	0.2632	0.2674	-9.209	21.3	-10.85
COCCN(Cc1cnn(C)c1)c1nc2c(s1)c(C)nn2C	-2.19	-2.687	2.985	15.56	4.242

Source: ChEMBL document CHEMBL3988442, “University of Dundee, Small-Polar-MMV Screening Library” (2021).